Data: the supplement of paper PMC6411743
± gives the standard deviation of the averaged measurements. The list shows a part of the results.

What was measured:
Experiment in all cases: NP40-soluble protein abundance relative to vehicle (solubility fold change) (ratio); higher = more soluble protein in presence of GTP
ADAM10 = biological target: T1, ADAM10 (UniProt O14672)
T1 sequence (whole entry): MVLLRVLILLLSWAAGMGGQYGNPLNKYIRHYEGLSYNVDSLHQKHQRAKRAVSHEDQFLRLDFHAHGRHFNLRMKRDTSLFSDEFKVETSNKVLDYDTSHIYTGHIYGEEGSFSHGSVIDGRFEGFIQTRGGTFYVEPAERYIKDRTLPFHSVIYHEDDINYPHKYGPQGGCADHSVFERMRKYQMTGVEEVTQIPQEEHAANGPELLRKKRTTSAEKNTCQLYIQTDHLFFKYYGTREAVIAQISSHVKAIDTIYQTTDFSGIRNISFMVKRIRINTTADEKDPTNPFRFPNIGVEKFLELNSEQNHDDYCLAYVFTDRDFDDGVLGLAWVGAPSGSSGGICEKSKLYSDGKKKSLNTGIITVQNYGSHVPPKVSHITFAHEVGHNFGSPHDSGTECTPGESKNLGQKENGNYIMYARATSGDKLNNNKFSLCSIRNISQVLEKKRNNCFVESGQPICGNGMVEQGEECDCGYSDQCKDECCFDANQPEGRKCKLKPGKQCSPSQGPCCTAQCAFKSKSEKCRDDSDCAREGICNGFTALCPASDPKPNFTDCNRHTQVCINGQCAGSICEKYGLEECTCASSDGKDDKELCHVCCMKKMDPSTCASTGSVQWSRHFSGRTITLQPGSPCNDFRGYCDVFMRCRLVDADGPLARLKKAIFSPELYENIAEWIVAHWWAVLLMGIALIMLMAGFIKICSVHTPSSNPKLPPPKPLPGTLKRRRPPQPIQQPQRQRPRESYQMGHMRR
Summary of the method: (§1)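 Values are fold changes against the detergent-processed vehicle, based on vsn-normalised intensities. Jurkat crude lysate was treated at eight concentrations from 0.1 to 10 mM (10 min at room temperature, then 3 min at 37 °C), solubilised with 0.8% NP40 and benzonase, ultracentrifuged and analysed by TMT-labelled LC-MS/MS over three independent experiments.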

DOK2 = biological target: T2, DOK2 (UniProt O60496)
T2 sequence (whole entry): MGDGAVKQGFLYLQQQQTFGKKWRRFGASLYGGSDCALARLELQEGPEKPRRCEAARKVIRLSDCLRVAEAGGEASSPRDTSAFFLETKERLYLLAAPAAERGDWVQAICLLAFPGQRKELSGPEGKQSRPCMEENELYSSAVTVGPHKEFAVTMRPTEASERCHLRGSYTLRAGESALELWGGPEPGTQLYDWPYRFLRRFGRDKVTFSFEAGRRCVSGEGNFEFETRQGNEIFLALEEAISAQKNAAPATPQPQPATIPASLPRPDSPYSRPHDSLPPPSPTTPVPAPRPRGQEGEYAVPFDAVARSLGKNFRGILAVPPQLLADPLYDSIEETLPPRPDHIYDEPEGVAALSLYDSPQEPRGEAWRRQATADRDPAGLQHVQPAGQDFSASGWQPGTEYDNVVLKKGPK
Summary of the method: as §1

[1] = biological target: T3, M0R165 and related entries (UniProt Q9UBC2)
T3 sequence (whole entry): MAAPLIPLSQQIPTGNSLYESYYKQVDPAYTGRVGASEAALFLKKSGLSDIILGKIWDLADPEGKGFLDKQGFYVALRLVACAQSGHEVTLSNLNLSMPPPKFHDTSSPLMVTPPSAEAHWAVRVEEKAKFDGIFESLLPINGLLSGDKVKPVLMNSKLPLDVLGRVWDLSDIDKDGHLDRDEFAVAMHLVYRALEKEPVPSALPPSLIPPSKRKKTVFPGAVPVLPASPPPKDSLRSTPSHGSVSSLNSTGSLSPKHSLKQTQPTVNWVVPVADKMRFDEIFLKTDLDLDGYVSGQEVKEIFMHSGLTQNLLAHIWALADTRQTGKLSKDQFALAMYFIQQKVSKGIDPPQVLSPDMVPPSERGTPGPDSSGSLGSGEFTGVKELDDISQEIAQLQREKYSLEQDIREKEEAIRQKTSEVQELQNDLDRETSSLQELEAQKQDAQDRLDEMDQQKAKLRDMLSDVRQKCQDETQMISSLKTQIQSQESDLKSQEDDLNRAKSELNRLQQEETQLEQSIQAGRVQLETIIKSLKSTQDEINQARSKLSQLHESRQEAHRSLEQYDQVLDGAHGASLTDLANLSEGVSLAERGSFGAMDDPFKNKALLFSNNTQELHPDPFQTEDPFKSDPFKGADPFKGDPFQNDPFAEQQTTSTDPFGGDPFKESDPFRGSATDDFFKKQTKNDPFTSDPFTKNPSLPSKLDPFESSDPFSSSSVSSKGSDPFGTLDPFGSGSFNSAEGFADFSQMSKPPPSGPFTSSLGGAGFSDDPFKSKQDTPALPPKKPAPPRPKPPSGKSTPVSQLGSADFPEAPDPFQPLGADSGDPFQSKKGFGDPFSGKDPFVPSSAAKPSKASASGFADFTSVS
Summary of the method: as §1

NVL = biological target: T4, NVL (UniProt O15381)
T4 sequence (whole entry): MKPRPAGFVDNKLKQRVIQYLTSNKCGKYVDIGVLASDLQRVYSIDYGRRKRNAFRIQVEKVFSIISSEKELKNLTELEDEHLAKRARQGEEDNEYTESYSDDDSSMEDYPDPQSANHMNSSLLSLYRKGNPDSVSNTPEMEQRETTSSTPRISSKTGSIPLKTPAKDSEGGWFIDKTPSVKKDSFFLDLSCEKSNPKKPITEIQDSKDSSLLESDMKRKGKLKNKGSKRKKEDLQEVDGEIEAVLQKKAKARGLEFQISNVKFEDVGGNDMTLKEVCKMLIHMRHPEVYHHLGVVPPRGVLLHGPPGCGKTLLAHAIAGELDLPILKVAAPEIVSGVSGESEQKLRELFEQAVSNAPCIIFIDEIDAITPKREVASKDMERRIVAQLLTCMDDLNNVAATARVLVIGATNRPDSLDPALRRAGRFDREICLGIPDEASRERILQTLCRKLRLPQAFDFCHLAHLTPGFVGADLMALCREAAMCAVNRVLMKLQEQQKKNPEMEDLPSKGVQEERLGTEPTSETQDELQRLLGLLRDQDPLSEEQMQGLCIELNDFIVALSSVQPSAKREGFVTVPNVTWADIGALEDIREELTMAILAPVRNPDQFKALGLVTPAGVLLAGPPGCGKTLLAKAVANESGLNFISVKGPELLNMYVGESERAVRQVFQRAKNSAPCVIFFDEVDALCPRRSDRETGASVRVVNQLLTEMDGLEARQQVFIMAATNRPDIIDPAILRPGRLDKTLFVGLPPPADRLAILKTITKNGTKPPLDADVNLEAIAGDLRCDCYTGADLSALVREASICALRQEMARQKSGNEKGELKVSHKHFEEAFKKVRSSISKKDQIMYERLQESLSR
Summary of the method: as §1

Nc1nc2c(ncn2[C@@H]2O[C@H](COP(=O)(O)OP(=O)(O)OP(=O)(O)O)[C@@H](O)[C@H]2O)c(=O)[nH]1 [guanosine triphosphate]
NP40-soluble protein abundance (ADAM10; concentration: 0.1mM): 1.04 ± 0.064
NP40-soluble protein abundance (ADAM10; concentration: 0.5mM): 1 ± 0.067
NP40-soluble protein abundance (ADAM10; concentration: 1mM): 1.04 ± 0.072
NP40-soluble protein abundance (ADAM10; concentration: 2mM): 0.992 ± 0.052
NP40-soluble protein abundance (ADAM10; concentration: 4mM): 1.01 ± 0.084
NP40-soluble protein abundance (ADAM10; concentration: 6mM): 1 ± 0.068
NP40-soluble protein abundance (ADAM10; concentration: 8mM): 1.03 ± 0.071
NP40-soluble protein abundance (ADAM10; concentration: 10mM): 1 ± 0.06
NP40-soluble protein abundance (DOK2; concentration: 0.1mM): 1.06 ± 0.072
NP40-soluble protein abundance (DOK2; concentration: 0.5mM): 1.03 ± 0.051
NP40-soluble protein abundance (DOK2; concentration: 1mM): 0.986 ± 0.033
NP40-soluble protein abundance (DOK2; concentration: 2mM): 0.94 ± 0.032
NP40-soluble protein abundance (DOK2; concentration: 4mM): 0.933 ± 0.046
NP40-soluble protein abundance (DOK2; concentration: 6mM): 0.94 ± 0.048
NP40-soluble protein abundance (DOK2; concentration: 8mM): 0.933 ± 0.014
NP40-soluble protein abundance (DOK2; concentration: 10mM): 0.913 ± 0.038
NP40-soluble protein abundance ([1]; concentration: 0.1mM): 0.922 ± 0.023
NP40-soluble protein abundance ([1]; concentration: 0.5mM): 0.898 ± 0.068
NP40-soluble protein abundance ([1]; concentration: 1mM): 0.967 ± 0.06
NP40-soluble protein abundance ([1]; concentration: 2mM): 0.927 ± 0.1
NP40-soluble protein abundance ([1]; concentration: 4mM): 0.918 ± 0.067
NP40-soluble protein abundance ([1]; concentration: 6mM): 0.938 ± 0.085
NP40-soluble protein abundance ([1]; concentration: 8mM): 0.947 ± 0.053
NP40-soluble protein abundance ([1]; concentration: 10mM): 0.935 ± 0.08
NP40-soluble protein abundance (NVL; concentration: 0.1mM): 1.137 ± 0.011
NP40-soluble protein abundance (NVL; concentration: 0.5mM): 1.18 ± 0.096
NP40-soluble protein abundance (NVL; concentration: 1mM): 1.25 ± 0.08
NP40-soluble protein abundance (NVL; concentration: 2mM): 1.31 ± 0.058
